This data set is described as follows: Folding by reduced CO difference spectroscopy (Soret band). In kind it is physicochemical. The note with it: for Folded: reduced CO difference spectroscopy; for λ max for Soret band: reduced CO difference spectrum.

B1: CYP102A2: parent P450 heme domain from Bacillus subtilis, with the F88A mutation (protein, listed as Bacillus subtilis)
chain: KETSPIPQPKTFGPLGNLPLIDKDKPTLSLIKLAEEQGPIFQIHTPAGTTIVVSGHELVKEVCDEERFDKSIEGALEKVRAFSGDGLATSWTHEPNWRKAHNILMPTFSQRAMKDYHEKMVDIAVQLIQKWARLNPNEAVDVPGDMTRLTLDTIGLCGFNYRFNSYYRETPHPFINSMVRALDEAMHQMQRLDVQDKLMVRTKRQFRYDIQTMFSLVDSIIAERRANGDQDEKDLLARMLNVEDPETGEKLDDENIRFQIITFLIAGHETTSGLLSFATYFLLKHPDKLKKAYEEVDRVLTDAAPTYKQVLELTYIRMILNESLRLWPTAPAFSLYPKEDTVIGGKFPITTNDRISVLIPQLHRDRDAWGKDAEEFRPERFEHQDQVPHHAYKPFGNGQRACIGMQFALHEATLVLGMILKYFTLIDHENYELDIKQTLTLKPGDFHISVQSRHQEAIHADVQAAE
As to B1, the Folded entry is listed as “yes” and the “λ max for Soret band” value is recorded as 449 nm.

B2: Chimera 50-140: CYP102A1 heme domain with residues 50-140 from CYP102A2 (protein)
chain: TIKEMPQPKTFGELKNLPLLNTDKPVQALMKIADELGEIFKFEAPGRVTIVVSGHELVKEVCDEERFDKSIEGALEKVRAFSGDGLATSWTHEPNWRKAHNILMPTFSQRAMKDYHEKMVDIAVQLIQKWARLNPNEAVDVPEDMTRLTLDTIGLCGFNYRFNSFYRDQPHPFITSMVRALDEAMNKLQRANPDDPAYDENKRQFQEDIKVMNDLVDKIIADRKASGEQSDDLLTHMLNGKDPETGEPLDDENIRYQIITFLIAGHETTSGLLSFALYFLVKNPHVLQKAAEEAARVLVDPVPSYKQVKQLKYVGMVLNEALRLWPTAPAFSLYAKEDTVLGGEYPLEKGDELMVLIPQLHRDKTIWGDDVEEFRPERFENPSAIPQHAFKPFGNGQRACIGQQFALHEATLVLGMMLKHFDFEDHTNYELDIKETLTLKPEGFVVKAKSKKIPLGGIPSPST
modifications: Chimeric Cytochrome P450 heme group sequence from Bacillus megaterium and Bacillus subtilis
notes: CYP102A1 heme domain with residues 50-140 from CYP102A2
For B2, the Folded entry is “yes” and the “λ max for Soret band” value came out at 448 nm.

B3: CYP102A1: parent P450 heme domain from Bacillus megaterium, with the F87A mutation (protein, listed as Bacillus megaterium)
chain: TIKEMPQPKTFGELKNLPLLNTDKPVQALMKIADELGEIFKFEAPGRVTRYLSSQRLIKEACDESRFDKNLSQALKFVRDFAGDGLATSWTHEKNWKKAHNILLPSFSQQAMKGYHAMMVDIAVQLVQKWERLNADEHIEVPEDMTRLTLDTIGLCGFNYRFNSFYRDQPHPFITSMVRALDEAMNKLQRANPDDPAYDENKRQFQEDIKVMNDLVDKIIADRKASGEQSDDLLTHMLNGKDPETGEPLDDENIRYQIITFLIAGHETTSGLLSFALYFLVKNPHVLQKAAEEAARVLVDPVPSYKQVKQLKYVGMVLNEALRLWPTAPAFSLYAKEDTVLGGEYPLEKGDELMVLIPQLHRDKTIWGDDVEEFRPERFENPSAIPQHAFKPFGNGQRACIGQQFALHEATLVLGMMLKHFDFEDHTNYELDIKETLTLKPEGFVVKAKSKKIPLGGIPSPST
Take B3: the Folded result was “yes” and the “λ max for Soret band” value is listed as 448 nm.

B4: Chimera 364-403: CYP102A1 heme domain with residues 364-403 from CYP102A2 (protein)
chain: TIKEMPQPKTFGELKNLPLLNTDKPVQALMKIADELGEIFKFEAPGRVTRYLSSQRLIKEACDESRFDKNLSQALKFVRDFAGDGLATSWTHEKNWKKAHNILLPSFSQQAMKGYHAMMVDIAVQLVQKWERLNADEHIEVPEDMTRLTLDTIGLCGFNYRFNSFYRDQPHPFITSMVRALDEAMNKLQRANPDDPAYDENKRQFQEDIKVMNDLVDKIIADRKASGEQSDDLLTHMLNGKDPETGEPLDDENIRYQIITFLIAGHETTSGLLSFALYFLVKNPHVLQKAAEEAARVLVDPVPSYKQVKQLKYVGMVLNEALRLWPTAPAFSLYAKEDTVLGGEYPLEKGDELMVLIPQLHRDRDAWGKDAEEFRPERFEHQDQVPHHAYKPFGNGQRACIGMQFALHEATLVLGMMLKHFDFEDHTNYELDIKETLTLKPEGFVVKAKSKKIPLGGIPSPST
modifications: Chimeric Cytochrome P450 heme group sequence from Bacillus megaterium and Bacillus subtilis
notes: CYP102A1 heme domain with residues 364-403 from CYP102A2
As for B4, the Folded result is “yes” and the “λ max for Soret band” value turned out to be 449 nm.

The values are drawn from patent publication US8603949B2, “Libraries of optimized cytochrome P450 enzymes and the optimized P450 enzymes” (California Institute of Technology, priority 2003, dated 2013).
